Reference: article PMC7800377
These are yes or no findings as the source states them, for the method shown. Some binding calls cover weakened binding; strength is not graded here.

Amino acid sequences for entries named in this document (tags omitted). Residues count along the entry.
UniProt Q8NF91, residues 8769-8797: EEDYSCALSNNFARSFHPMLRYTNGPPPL
UniProt Q9UH99, residues 522-717: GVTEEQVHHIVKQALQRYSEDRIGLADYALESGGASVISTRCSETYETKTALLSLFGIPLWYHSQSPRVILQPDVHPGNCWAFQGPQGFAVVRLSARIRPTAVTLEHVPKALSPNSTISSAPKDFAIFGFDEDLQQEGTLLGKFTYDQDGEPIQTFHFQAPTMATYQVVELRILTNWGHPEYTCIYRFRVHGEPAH

Experiments:
[1] = target: MBP-KASH1 (His6-MBP fusion of the KASH domain of human Nesprin-1, residues 8769–8797) (human) (UniProt Q8NF91); test: SEC-MALS; co-expressed and co-purified samples at >1 mg/ml on Superdex 200 Increase 10/300 GL in 20 mM Tris pH 8.0, 150 mM KCl, 2 mM DTT; both purified
[2] = target: GCN4-SUN2 (His6-GCN4 fusion of the SUN domain of human SUN2, residues 522–717), wild-type (human) (UniProt Q9UH99); test: SEC; GCN4-SUN and MBP-KASH co-expressed, purified by amylose affinity and ion exchange, whole elution pooled and run on analytical gel filtration (Superdex 200 Increase 10/300 GL) in 20 mM Tris pH 8.0, 150 mM KCl, 2 mM DTT; fractions by SDS-PAGE; both purified

- binding [1]: no binding
- binding [2]: binds
Substance: MBP-KASH1 (His6-MBP fusion of the KASH domain of human Nesprin-1, residues 8769–8797) (from UniProt Q8NF91 8769-8797) (domain or fragment)
